Results are given in words; binding and its absence hold for the method and conditions named. Binding seen in cells or lysates may run through a third protein. Binding can be weak; no strength is given.
Target: Plasmodium berghei actin-like protein Alp5a, endogenously tagged with 3XHA (Alp5a-3XHA) (P. berghei)
Test: co-IP; purified gametocytes of Alp5a-3XHA parasites crosslinked with 5 mM DSP, lysed in RIPA buffer; anti-HA magnetic beads, 30 min at RT; blot probed with anti-HA and anti-Alp5b antibodies

Sequences of proteins named here, by UniProt entry; tags and fusion partners are left off. A change or cut given only in a name is not applied to a line headed by its entry.
UniProt A0A509AML7: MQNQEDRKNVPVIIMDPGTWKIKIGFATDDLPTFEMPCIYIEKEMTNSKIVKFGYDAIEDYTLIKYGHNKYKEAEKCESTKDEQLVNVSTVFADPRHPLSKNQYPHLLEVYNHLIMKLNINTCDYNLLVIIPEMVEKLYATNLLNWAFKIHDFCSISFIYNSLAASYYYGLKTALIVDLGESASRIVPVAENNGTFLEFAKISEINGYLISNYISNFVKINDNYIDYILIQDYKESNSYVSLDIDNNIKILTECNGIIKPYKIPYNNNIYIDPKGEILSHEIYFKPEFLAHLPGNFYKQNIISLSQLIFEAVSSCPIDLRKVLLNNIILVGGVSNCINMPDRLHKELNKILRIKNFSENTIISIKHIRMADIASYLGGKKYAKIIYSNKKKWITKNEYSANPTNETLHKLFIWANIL

For “Plasmodium berghei actin-like protein Alp5b (from UniProt A0A509AML7)”, the binding was “binds”.

Source: PMC12617974
